Results from paper PMC4106906.

Molecular target: T1, human BIN1 isoform 1, myc-tagged (human) (UniProt O00499)
T1 sequence: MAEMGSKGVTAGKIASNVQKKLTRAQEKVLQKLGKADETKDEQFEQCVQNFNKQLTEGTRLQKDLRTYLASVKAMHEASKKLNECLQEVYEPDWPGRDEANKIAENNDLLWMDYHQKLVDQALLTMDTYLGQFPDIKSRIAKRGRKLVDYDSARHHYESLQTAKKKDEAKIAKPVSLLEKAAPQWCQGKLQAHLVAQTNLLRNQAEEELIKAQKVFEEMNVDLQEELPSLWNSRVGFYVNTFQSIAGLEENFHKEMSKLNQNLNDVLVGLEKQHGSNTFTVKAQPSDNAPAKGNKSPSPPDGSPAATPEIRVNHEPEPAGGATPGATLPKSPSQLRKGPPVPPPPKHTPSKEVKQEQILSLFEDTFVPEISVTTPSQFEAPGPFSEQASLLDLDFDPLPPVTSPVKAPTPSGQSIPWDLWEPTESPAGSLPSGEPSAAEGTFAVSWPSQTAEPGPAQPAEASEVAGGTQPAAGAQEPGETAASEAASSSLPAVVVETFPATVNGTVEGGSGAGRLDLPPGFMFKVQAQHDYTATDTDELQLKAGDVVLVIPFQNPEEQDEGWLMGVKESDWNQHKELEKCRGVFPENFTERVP
Assay: co-IP; co-transfection of flag-tagged iCLU mutants MT1-8 with BIN1.1; cells and immunoprecipitating antibody not told

binding: no binding
Substance: truncated iCLU MT8 (frame-shift CLU mutant lacking the C-terminus coiled-coil region) (human) (domain or fragment)

These are yes or no findings as the source states them, for the method shown. In cells and extracts the contact can be indirect. Where a sequence is shown, tags or fusion partners need not be part of it.
